Measured values published in patent publication US8076321B2, “Compositions for treatment of systemic mastocytosis” (priority 2005, dated 2011).
pIC50: −log10 of the molar value.

How the values were obtained:
[1] = system: non-transfected Ba/F3 cells; details: not shown
[2] = system: Ton.Kit.wt cells (Ba/F3 with inducible wt KIT); assay: cells; details: Mus musculus, BaF3, 48 h, read-out: IC50, SCF-dependent growth of doxycycline-exposed Ton.Kit.wt cells

## CO[C@@H]1[C@H](N(C)C(=O)c2ccccc2)C[C@H]2O[C@]1(C)n1c3ccccc3c3c4c(c5c6ccccc6n2c5c31)C(=O)NC4 [PKC412, N-[(9S,10R,11R,13R)-2,3,10,11,12,13-hexahydro-10-methoxy-9-methyl-1-oxo-9,13-epoxy-1H,9H-diindolo[1,2,3-gh:3′,2′,1′-1m]pyrrolo[3,4-j][1,7]benzodiazonin-11-yl]-N-methylbenzamide]
[1]
  growth-inhibitory effect on control (non-transfected) Ba/F3 cells: neither doxycycline (1 μg/ml), nor the TK inhibitors (imatinib, PKC412, AMN107), showed growth-inhibitory effects
[2]
  pIC50: 7.52 to 8.52
